{
  "source": "patent US20170348337A1",
  "about": "“MULTIFUNCTIONAL MEMBRANE-ACTIVE AMINOGLYCOSIDE-PEPTIDE CONJUGATES” (priority 2014, published 2017)",
  "key": {"E. coli ML35": {"test_system": "E. coli ML35", "experiment": "E. coli ML35 cell permeabilization assay (ONPG→ONP conversion)", "type": "cell-based", "description": "E. coli ML35 [lacZ-(Con) ΔlacY] cannot take up the lactose mimic ONPG unless cell membrane integrity is compromised. Upon membrane permeabilization ONPG can diffuse into the bacterial cell cytoplasm where it is hydrolyzed by β-galactosidase into galactose and ONP. Since ONP absorbs at 400 nm, the permeabilization kinetics of membrane-disrupting agents can be monitored by OD400 absorbance measurement. Methodology here was very similar to previous studies. Log-phase E. coli cells were grown as described above, washed and resuspended in 10 mM Tris supplemented with 0.01 volume (1% vol/vol) TSB at pH 7.4 (Tris-TSB). In triplicate, bacteria (5×10^6 cells/well) were exposed to various concentrations of antibiotic (Pentobra, tobramycin, Pen peptide) in the presence of 2.5 mM ONPG for 90 min at 37° C. The kinetics of ONPG hydrolysis were measured by determining the absorbance at 400 nm using a plate reader spectrophotometer.\nTo characterize the membrane activity of Pentobra on bacteria, its permeabilization kinetics were monitored on live cells by conducting an enzymatic assay for the conversion of ortho-nitrophenyl β-D-galactopyranoside (ONPG) to ortho-nitrophenol (ONP) on the E. coli strain ML35. E. coli ML35 [lacZ-(Con) ΔlacY] constitutively expresses β-galactosidase (β-gal) but lacks the lactose permease necessary for uptake of the lactose analogue ONPG. ONPG internalization cannot occur without a breach in the plasma membrane. Inner membrane permeabilization of E. coli ML35 cells allows diffusion of ONPG into cells where β-gal can convert it into ONP, which absorbs at 405 nm."}, "[1]": {"test_system": "P. acnes laboratory strain ATCC 6919", "experiment": "P. acnes CFU assay, laboratory strain", "type": "cell-based, Propionibacterium acnes"}, "[2]": {"test_system": "P. acnes in comedone extracts", "experiment": "microcomedone assay (human comedone extracts)", "type": "cell-based, Propionibacterium acnes", "conditions": "similar drug concentrations (FIG. 11C)"}},
  "note": "At least one peptide structure holds a part that was inferred or is arguable (an end, a ring closure or a residue). No end group written: not given here.",
  "data": [
    {"sequence": "RQIKIWFQNRRW [Pen peptide, reference compound]", "values": [
      {"measurement": "colonies from ML35 E. coli cells plated following the assay", "setting": "E. coli ML35; 22 μM", "result": "showed colony forming units"},
      {"measurement": "inner membrane permeabilization (400 nm absorbance, ONPG→ONP)", "setting": "E. coli ML35; 90 min, 37° C.", "result": "strongly lytic"},
      {"measurement": "killing activity", "setting": "[1]", "result": "neither tobramycin nor the free Pen peptide were effective"},
      {"measurement": "reduction in CFU", "setting": "[2]", "result": "less than ten"}
    ]}
  ]
}
